This assay concerns the target Apolipoprotein L3 (APOL3), MYC-tagged, overexpressed from the PEGFP-APOL3-MYC vector (UniProt O95236). The experiment in a line: co-IP; lysate of transfected MCF7 cells; MYC antibodies or YBX1 antibodies, IgG as negative control, overnight at 4 °C; agarose beads 3 h at 4 °C; PBS washes; western blotting. Background: In western blotting, separated proteins are transferred to a membrane and probed.

Amino acid sequences for entries named in this document (tags omitted).
UniProt O95236: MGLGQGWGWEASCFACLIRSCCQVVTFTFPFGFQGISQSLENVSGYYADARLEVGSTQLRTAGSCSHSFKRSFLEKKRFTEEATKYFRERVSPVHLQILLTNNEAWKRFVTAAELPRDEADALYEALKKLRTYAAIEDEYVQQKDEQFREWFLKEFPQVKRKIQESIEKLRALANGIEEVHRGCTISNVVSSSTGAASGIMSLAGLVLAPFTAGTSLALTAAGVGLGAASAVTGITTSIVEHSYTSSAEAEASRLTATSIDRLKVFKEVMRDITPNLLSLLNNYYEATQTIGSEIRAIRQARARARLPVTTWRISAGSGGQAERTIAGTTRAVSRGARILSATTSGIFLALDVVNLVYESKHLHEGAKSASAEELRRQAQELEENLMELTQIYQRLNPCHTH
UniProt P67809: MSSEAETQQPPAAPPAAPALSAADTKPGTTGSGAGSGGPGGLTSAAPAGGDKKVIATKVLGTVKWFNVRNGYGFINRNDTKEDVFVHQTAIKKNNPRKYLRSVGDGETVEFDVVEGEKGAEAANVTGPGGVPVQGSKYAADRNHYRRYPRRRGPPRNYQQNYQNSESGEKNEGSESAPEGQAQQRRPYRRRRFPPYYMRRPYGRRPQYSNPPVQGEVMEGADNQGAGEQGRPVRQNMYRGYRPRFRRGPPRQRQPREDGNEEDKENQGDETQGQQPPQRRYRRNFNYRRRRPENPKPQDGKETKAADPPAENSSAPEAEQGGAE

These are yes or no findings as the source states them, for the method shown. Binding seen in cells or lysates may run through a third protein. Some entries that bind do so weakly or less than the wild type.

For “Y-box binding protein 1 (YBX1) (from UniProt P67809 1-324)”, the binding result is “binds”.
